# According to US12178892B2 (Endocyte, Inc., priority 2013, dated 2024):
# Columns and labels:
# [1] = general procedure: Fmoc solid-phase peptide synthesis; Fmoc-L-Lys(Mtt)-Wang resin; Fmoc-Lys(Boc)-Wang resin; Trt-EDA resin; HBTU, HOBt, DIPEA; settings: for isolated yield: whole synthesis
# [2] = general procedure: Fmoc solid-phase peptide synthesis; Wang resin; HBTU, HOBt, DIPEA; settings: whole synthesis
substance,measurement,setting,value
DUPA-EAOA-Phe-Arg-Lys-NH2-NOTA,conjugation yield,"[1]; conjugation step, on QC08001",50%
Pte-γGlu-Arg-Arg-Lys-Bn-NOTA,isolated mass,[2]; scale 0.07 mmol,35 mg
same,isolated yield,[2]; scale 0.07 mmol,35%
Pte-γGlu-Arg-Arg-Lys-NOTA,isolated mass,[2]; scale 0.12 mmol,28 mg
same,isolated yield,[2]; scale 0.12 mmol,20%
Pte-γGlu-Asp-Arg-Arg-Lys-Bn-NOTA,isolated yield,[1],18% yield
Glu-Lys-AMPAA-Asp-Asp-Lys-Bn-NOTA,isolated yield,[1],47% yield
DUPA-EAOA-Phe-Phe-NOTA,final HPLC purity,"[1]; conjugation step, 210 nm",97%
same,conjugation yield,"[1]; conjugation step, based on 8.02 mg in theory",56%
Glu-Lys-Aoc-Phe-Phe-Arg-Asp-Arg-Lys-NOTA,isolated yield,[1],37% yield
